# Experimental data from publication PMC7862700.
# Chains of the proteins cited; added tags and fusions are not shown. Lines headed by an entry give the natural chain unless they say otherwise; changes in a name come on top.
# UniProt P32519: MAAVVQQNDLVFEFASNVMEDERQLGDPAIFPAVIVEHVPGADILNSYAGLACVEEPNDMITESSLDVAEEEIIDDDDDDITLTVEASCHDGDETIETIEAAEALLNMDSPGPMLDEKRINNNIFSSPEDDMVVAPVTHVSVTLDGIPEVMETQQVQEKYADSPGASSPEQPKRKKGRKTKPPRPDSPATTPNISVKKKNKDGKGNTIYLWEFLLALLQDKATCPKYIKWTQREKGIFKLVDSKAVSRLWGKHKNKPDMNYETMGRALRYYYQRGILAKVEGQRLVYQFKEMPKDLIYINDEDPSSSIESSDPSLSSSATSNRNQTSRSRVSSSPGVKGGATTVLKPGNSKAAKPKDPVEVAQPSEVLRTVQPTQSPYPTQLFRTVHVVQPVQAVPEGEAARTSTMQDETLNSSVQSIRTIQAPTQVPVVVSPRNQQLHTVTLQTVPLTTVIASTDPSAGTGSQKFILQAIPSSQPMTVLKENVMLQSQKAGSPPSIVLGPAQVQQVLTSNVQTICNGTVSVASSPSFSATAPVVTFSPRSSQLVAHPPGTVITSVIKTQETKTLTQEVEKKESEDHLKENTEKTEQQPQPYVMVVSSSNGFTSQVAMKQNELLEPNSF
# UniProt P50549: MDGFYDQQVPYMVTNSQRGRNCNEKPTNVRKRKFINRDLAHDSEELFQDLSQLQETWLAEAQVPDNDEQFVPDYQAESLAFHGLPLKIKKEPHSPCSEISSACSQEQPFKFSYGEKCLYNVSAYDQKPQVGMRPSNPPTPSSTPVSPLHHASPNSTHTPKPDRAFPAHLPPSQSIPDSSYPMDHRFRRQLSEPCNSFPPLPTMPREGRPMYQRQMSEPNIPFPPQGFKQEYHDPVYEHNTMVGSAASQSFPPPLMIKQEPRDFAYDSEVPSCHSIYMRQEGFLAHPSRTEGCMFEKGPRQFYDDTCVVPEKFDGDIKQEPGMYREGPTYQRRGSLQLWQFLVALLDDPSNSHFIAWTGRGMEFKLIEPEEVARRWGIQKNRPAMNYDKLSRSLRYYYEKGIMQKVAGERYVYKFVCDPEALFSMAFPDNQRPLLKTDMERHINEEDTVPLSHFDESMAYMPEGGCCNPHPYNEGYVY
# This is a selection; strong and weak results do not stand in their true shares. For part of these data: At the low end of the ranking the order means little. The list shows a part of the results. For part of these data: The source does not settle which construct or isoform was used.
# Experiments:
# Assay in all cases: DAPPL (digital affinity profiling via proximity ligation, sequencing)
# Conditions in all cases: 10 mM Tris-HCl pH 7.5, 50 mM NaCl, 1 mM DTT, 4% glycerol, room temperature, 30 min; GST-TFs on glutathione beads, 16-mer random dsDNA library, 0.1% …; high values mean tight binding; double strand, one strand shown; scale: fold enrichment (6-mer frequency, TF over GST control)
# ERG = target: T1, ERG (UniProt P11308)
# T1 sequence: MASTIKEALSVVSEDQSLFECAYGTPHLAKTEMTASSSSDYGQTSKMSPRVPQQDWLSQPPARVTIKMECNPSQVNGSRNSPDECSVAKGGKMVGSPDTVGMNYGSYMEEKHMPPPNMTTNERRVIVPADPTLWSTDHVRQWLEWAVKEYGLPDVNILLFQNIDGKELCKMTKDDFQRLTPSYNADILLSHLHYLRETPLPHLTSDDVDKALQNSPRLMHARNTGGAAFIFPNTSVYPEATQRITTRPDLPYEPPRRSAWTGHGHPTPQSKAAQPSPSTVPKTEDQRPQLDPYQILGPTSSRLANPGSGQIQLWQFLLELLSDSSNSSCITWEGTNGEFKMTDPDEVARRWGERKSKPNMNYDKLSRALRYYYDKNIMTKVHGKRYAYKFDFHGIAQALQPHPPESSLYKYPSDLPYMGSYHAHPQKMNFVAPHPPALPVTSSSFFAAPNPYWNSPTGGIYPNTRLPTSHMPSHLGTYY
# ELF1 = ELF1 (UniProt P32519)
# ETV4 = target: T2, ETV4 (UniProt P43268)
# T2 sequence: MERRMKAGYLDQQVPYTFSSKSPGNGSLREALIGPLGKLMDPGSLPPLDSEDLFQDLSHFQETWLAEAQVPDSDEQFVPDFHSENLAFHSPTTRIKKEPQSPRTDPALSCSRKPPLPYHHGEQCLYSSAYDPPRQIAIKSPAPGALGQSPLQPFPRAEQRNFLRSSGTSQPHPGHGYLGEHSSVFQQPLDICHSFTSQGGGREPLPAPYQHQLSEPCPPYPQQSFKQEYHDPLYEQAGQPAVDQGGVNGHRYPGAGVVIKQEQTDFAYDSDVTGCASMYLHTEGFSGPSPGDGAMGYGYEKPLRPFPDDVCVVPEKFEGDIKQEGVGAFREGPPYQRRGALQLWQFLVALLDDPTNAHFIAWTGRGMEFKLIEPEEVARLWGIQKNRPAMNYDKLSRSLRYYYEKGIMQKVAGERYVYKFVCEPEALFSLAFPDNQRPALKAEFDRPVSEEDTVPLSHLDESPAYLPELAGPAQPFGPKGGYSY
# ETV1 = ETV1 (UniProt P50549)
# ERF = target: T3, ERF (UniProt P50548)
# T3 sequence: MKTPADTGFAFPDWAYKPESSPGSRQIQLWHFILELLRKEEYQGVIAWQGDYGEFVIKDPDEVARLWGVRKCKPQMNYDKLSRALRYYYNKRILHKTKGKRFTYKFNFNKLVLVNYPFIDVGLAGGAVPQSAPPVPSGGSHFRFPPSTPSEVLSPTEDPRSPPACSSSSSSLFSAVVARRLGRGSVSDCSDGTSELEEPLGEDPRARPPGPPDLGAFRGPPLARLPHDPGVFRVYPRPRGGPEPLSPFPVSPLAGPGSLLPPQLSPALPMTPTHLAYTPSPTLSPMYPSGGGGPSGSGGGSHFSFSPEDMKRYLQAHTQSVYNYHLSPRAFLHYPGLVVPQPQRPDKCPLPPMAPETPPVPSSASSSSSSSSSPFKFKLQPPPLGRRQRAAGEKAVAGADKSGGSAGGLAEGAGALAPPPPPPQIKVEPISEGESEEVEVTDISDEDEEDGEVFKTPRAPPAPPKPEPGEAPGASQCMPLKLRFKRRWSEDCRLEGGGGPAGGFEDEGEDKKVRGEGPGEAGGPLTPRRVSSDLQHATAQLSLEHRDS
sequence,measurement,setting,value
TTGTAC,binding signal,ERG,1.33
same,binding signal,ELF1,1.41
same,binding signal,ETV4,1.54
CTCTAG,binding signal,ERG,1.25
same,binding signal,ELF1,1.38
same,binding signal,ETV4,1.37
GACTCT,binding signal,ERG,1.34
same,binding signal,ELF1,1.37
same,binding signal,ETV4,1.38
CTTGGG,binding signal,ETV4,1.28
same,binding signal,ETV1,1.38
CGATAT,binding signal,ETV4,1.19
same,binding signal,ETV1,0.979
TACATC,binding signal,ETV4,1.79
same,binding signal,ETV1,1.64
CAGCTT,binding signal,ETV4,1.21
same,binding signal,ETV1,1.16
AGATTC,binding signal,ETV4,1.19
same,binding signal,ETV1,1.22
AAGTGG,binding signal,ETV4,1.16
same,binding signal,ETV1,1.2
AGCTTT,binding signal,ETV4,1.08
same,binding signal,ETV1,1.1
AGGCTC,binding signal,ETV4,1.1
same,binding signal,ETV1,1.06
TAGTTT,binding signal,ETV4,1.2
same,binding signal,ETV1,1.24
CGTATG,binding signal,ETV4,1.07
same,binding signal,ETV1,1.04
GGCTCC,binding signal,ETV4,1.51
same,binding signal,ETV1,1.24
AAGATA,binding signal,ETV4,1.09
same,binding signal,ETV1,1.2
TTACCG,binding signal,ETV4,1.12
same,binding signal,ETV1,1.14
AAGAAT,binding signal,ETV4,1.14
same,binding signal,ETV1,1.15
TCTCGC,binding signal,ETV4,1.85
same,binding signal,ETV1,1.75
CTAAGA,binding signal,ETV4,1.21
same,binding signal,ETV1,1.22
TAGCCC,binding signal,ETV4,1.29
same,binding signal,ETV1,1.12
GCTCAA,binding signal,ETV4,1.09
same,binding signal,ETV1,1.1
TGAAAC,binding signal,ETV4,1.3
same,binding signal,ETV1,1.27
CTCATT,binding signal,ETV4,1.53
same,binding signal,ETV1,1.52
TTAATT,binding signal,ETV4,1.37
same,binding signal,ETV1,1.34
CTCAGG,binding signal,ETV4,1.04
same,binding signal,ETV1,0.963
ACACAC,binding signal,ETV4,1.16
same,binding signal,ETV1,1.17
AAATGA,binding signal,ETV4,1.26
same,binding signal,ETV1,1.29
TATCCT,binding signal,ETV4,1.8
same,binding signal,ETV1,1.72
ACAATA,binding signal,ETV4,1.17
same,binding signal,ETV1,1.13
CTTCCT,binding signal,ETV4,3.08
same,binding signal,ETV1,3.18
CTCCTA,binding signal,ETV4,1.35
same,binding signal,ETV1,1.29
CCGTAC,binding signal,ETV4,1.32
same,binding signal,ETV1,1.34
TATCGA,binding signal,ETV4,1.32
same,binding signal,ETV1,1.31
ACCATA,binding signal,ETV4,1.13
same,binding signal,ETV1,1.09
ATATGT,binding signal,ETV4,1.18
same,binding signal,ETV1,1.12
TCCCAA,binding signal,ETV4,1.15
same,binding signal,ETV1,1.2
CTGGGT,binding signal,ETV4,1.11
same,binding signal,ETV1,0.997
TCTCCC,binding signal,ETV4,1.69
same,binding signal,ETV1,1.78
GACATC,binding signal,ETV4,1.41
same,binding signal,ETV1,1.33
CGATCC,binding signal,ETV4,1.15
same,binding signal,ETV1,1.25
ATATGA,binding signal,ETV4,1.13
same,binding signal,ETV1,1.05
GATTCC,binding signal,ETV4,1.11
same,binding signal,ETV1,1.21
TTACTG,binding signal,ETV4,1.07
same,binding signal,ETV1,1.01
CGATCT,binding signal,ETV4,1.41
same,binding signal,ETV1,1.24
ATGGAT,binding signal,ETV4,1.14
same,binding signal,ETV1,1.06
TGCCAA,binding signal,ETV4,1.13
same,binding signal,ETV1,0.962
same,binding signal,ERF,1.15
TGATCT,binding signal,ETV4,1.36
same,binding signal,ETV1,1.2
same,binding signal,ERF,1.35

# Quoted at random: 2 records from the list.
sequence,measurement,setting,value
GCTCAA,binding signal,ETV1,1.1
TCTCCC,binding signal,ETV1,1.78

# For convenience, part of the list above:
sequence,measurement,setting,value
TGAAAC,binding signal,ETV1,1.27
CTCATT,binding signal,ETV4,1.53
